According to PMC6529632, “Robust Stoichiometry of FliW-CsrA Governs Flagellin Homeostasis and Cytoplasmic Organization in Bacillus subtilis” (mBio, 2019):
Results are given in words; binding and its absence hold for the method and conditions named. Some binding calls cover weakened binding; strength is not graded here. Where a sequence is shown, tags or fusion partners need not be part of it.

Biological target: T1, CsrA^N55D-strep (monomer co-expressed with CsrA^WT-His6) (Bacillus subtilis) (UniProt P33911)
T1 sequence: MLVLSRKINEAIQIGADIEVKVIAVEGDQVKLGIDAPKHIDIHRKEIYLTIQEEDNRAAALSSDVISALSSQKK
Test: sequential affinity co-purification with SDS-PAGE; both chains co-expressed from one vector in E. coli; Ni-NTA by the His6 tag, then Strep-Tactin by the Strep tag, then size exclusion; Coomassie-stained denaturing gel, densitometry

- binding: binds
B1: CsrA^WT-His6 (monomer co-expressed with CsrA^N55D-strep) (natural protein, Bacillus subtilis, UniProt P33911 1-74, looked up)
chain: MLVLSRKINEAIQIGADIEVKVIAVEGDQVKLGIDAPKHIDIHRKEIYLTIQEENNRAAALSSDVISALSSQKK
notes: CsrA of Bacillus subtilis, wild type, amplified from pCSB9; Same chain as in m1 and m3; Written as a single chain for the pair row of the heterodimer; also called CsrA-His6; source: Rosetta-gami E. coli, co-expressed with CsrA^N55D-strep from dual-expression vector pRO76
